Measurements reported in PubChem BioAssay AID720505 (Drosophila RNAi Screening Center, 2013).
Assay: 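Fly regulators or components of the CRAC channel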 (primary screen). System: Drosophila S2R+ cells. Reagent: long dsRNA against Drosophila genes. Conditions: thapsigargin (2 µM) in calcium-free buffer to empty internal stores, then 2 mM calcium added back. Measured: 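Stores emptied by 2 µM thapsigargin without calcium, then 2 mM calcium re-added; fluo-4 fluorescence followed by FLIPR in 384-well plates, per-well averaged endpoint, raw; two screen passes, some wells retested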. Direction: calcium signal and retest calcium signal: higher = more calcium entry after store depletion. Hit rule: 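About 1500 genes called as lowering calcium entry, by varying amounts, judged against per-plate control wells with STIM1 as positive and Rho1 as negative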. Meaning of the calls: active = called as lowering calcium entry; inactive = not called.
The screen tested about 20,000 reagents; below is an unselected part of those with a known target gene and a result. Of all reagents, about 2,100 (10%) are marked active. 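Raw plate signals without normalisation; calls rest on control-based scores that were not deposited; replicate 2 separates called from uncalled poorly.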 The numbers tell different reagents against one gene apart. Not given: the amount of reagent, the time to read-out.

| Target gene | reagent | calcium signal, replicate 1 | calcium signal, replicate 2 | retest calcium signal, replicate 1 | retest calcium signal, replicate 2 | activity call |
| --- | --- | --- | --- | --- | --- | --- |
| CG11449 | 1 | 107 | 139 | – | – | inactive |
| CG13070 | 1 | 110 | 155 | – | – | inactive |
| CG15390 | 1 | 214 | 172 | – | – | inactive |
| CG14551 | 1 | 222 | 115 | – | – | inactive |
| CG11997 | 1 | 109 | 152 | – | – | inactive |
| Nek2 | 1 | 170 | 110 | 151 | 92.2 | inactive |
| ro | 1 | 123 | 162 | – | – | inactive |
| CAH14 | 1 | 178 | 91.5 | – | – | inactive |
| CAH14 | 2 | 91 | 198 | – | – | inactive |
| Vps52 | 1 | 103 | 105 | – | – | inactive |
| CG5043 | 1 | 79.7 | 143 | – | – | active |
| CG15803 | 1 | 145 | 172 | – | – | inactive |
| CG6149 | 1 | 117 | 77.2 | – | – | inactive |
| CG31661 | 1 | 163 | 156 | – | – | inactive |
| lncRNA:CR32690 | 1 | 106 | 204 | – | – | inactive |

2 entries from above, set out differently:
Target gene | reagent | calcium signal, replicate 1 | calcium signal, replicate 2 | retest calcium signal, replicate 1 | retest calcium signal, replicate 2 | activity call
CG11997 | 1 | 109 | 152 | – | – | inactive
Nek2 | 1 | 170 | 110 | 151 | 92.2 | inactive

More results:
| Target gene | reagent | calcium signal, replicate 1 | calcium signal, replicate 2 | retest calcium signal, replicate 1 | retest calcium signal, replicate 2 | activity call |
| --- | --- | --- | --- | --- | --- | --- |
| Sap130 | 1 | 63.1 | 93.3 | – | – | inactive |
| CG14829 | 1 | 81.4 | 33.2 | – | – | inactive |
| ND-B14.5A | 1 | 67 | 129 | – | – | inactive |
| wam | 1 | 200 | 121 | – | – | inactive |
| dwg | 1 | 114 | 169 | – | – | inactive |
| Gasz | 1 | 181 | 95.9 | – | – | inactive |
| Dph4 | 1 | 177 | 177 | – | – | inactive |
| CG15740 | 1 | 52.3 | 103 | – | – | active |
| CG15740 | 2 | 85.3 | 120 | – | – | inactive |
| CG5157 | 1 | 101 | 231 | – | – | inactive |
| Sap30 | 1 | 117 | 104 | – | – | inactive |
| CG13689 | 1 | 89.6 | 114 | – | – | inactive |
| RabX2 | 1 | 65.6 | 89.1 | 5636 | 129 | inactive |
| out | 1 | 170 | 149 | – | – | inactive |
| vito | 1 | 145 | 109 | – | – | inactive |
| vri | 1 | 210 | 76.3 | – | – | inactive |
| vri | 2 | 90.9 | 117 | – | – | inactive |
| RpL5 | 1 | 144 | 98.3 | – | – | inactive |
| Irp-1A | 1 | 142 | 354 | 118 | 112 | inactive |
